# Structures can show the parent of a compound that is named as a salt. Where two headings read alike, the source gives them in different places. In all, about 3,300 compounds went through this assay and about 95 (3%) showed an effect of 50% or more. The list shows a part of the results. Peptide text beside a SMILES is read from it.
# Test system: HCoV-229E
# Set-up: species or system Huh-7; HTS, protection from HCoV-229E induced cell death, luminescent cell viability (CellCounting-Lite 2.0), inhibition rate
# Settings: 24 h post infection, 1 h compound pre-incubation, 10 µM, inhibitor
Compound,"229E Inhibition rate (229E Inhibition rate, 24 h) [%]",229E Inhibition rate [%]
OC1OC[C@@H](O)[C@@H](O)[C@@H]1O (stereo partly drawn) [D-Arabinose],21.5,–
O=C(O)CCCCCCC[C@@H](O)[C@@H](O)CCCCCCO [Aleuritic acid],–,8.8
C[C@H](CCC(=O)O)[C@H]1CC[C@H]2[C@@H]3CC[C@@H]4C[C@H](O)CC[C@]4(C)[C@H]3C[C@H](O)[C@]12C [Deoxycholic acid sodium salt],36.6,–
CN(C)[C@@H]1C(O)=C(C(N)=O)C(=O)[C@@]2(O)C(O)=C3C(=O)c4c(O)cccc4[C@@](C)(O)[C@H]3C[C@@H]12 [Tetracycline (hydrochloride)],–,0
C=C1C(=O)O[C@H]2[C@H]1CC[C@]1(C)O[C@@]13CC[C@@](C)(O)[C@H]23 [Epoxymicheliolide],–,37
N[C@@H](CCC(=O)O)C(=O)O [L-Glutamic acid],5.2,–
O=c1cc(-c2ccccc2)oc2cc(O[C@@H]3O[C@H](CO[C@@H]4O[C@H](CO)[C@@H](O)[C@H](O)[C@H]4O)[C@@H](O)[C@H](O)[C@H]3O)c(O)c(O)c12 [Oroxin B],–,35.5
C[C@H](N)C(=O)N[C@@H](CCC(N)=O)C(=O)O [L-Alanyl-L-glutamine] (H-Ala-Gln-OH),–,8.7
"OCC(O)c1ccc(O)c(O)c1 (stereo not shown) [4-(1,2-Dihydroxyethyl)benzene-1,2-diol]",–,0
CCCCCCCCCCCCCCCCCC(=O)NCc1ccccc1 [N-Benzyloctadecanamide],–,46.3
C=CC(=C)CCC=C(C)C [Myrcene],–,18.9
CC[C@@H]1/C=C/C=C/C[C@H](C)[C@H](O)[C@](C)(O)C(=O)[C@H](C)[C@@H](O)[C@H](C)C(=O)[C@H](C)[C@@H](O)[C@H](C)/C=C/C(=O)O[C@H]2[C@@H](C)[C@@H](CC1)O[C@@]1(CC[C@@H](C)[C@@H](C[C@H](C)O)O1)[C@@H]2C [Oligomycin A],–,4.2
C[C@@H]1CC[C@H]2C(C)(C)[C@H]3C[C@@]12CC[C@@]3(C)O [Cedrol],–,13.4
COc1ccc2c3c1O[C@H]1C[C@@H](O)CC[C@]31CCN(C)C2 [Lycoramine],–,33.8
COc1c(O[C@@H]2O[C@H](C(=O)O)[C@@H](O)[C@H](O)[C@H]2O)cc2oc(-c3ccccc3)cc(=O)c2c1O [Oroxylin A-7-O-glucuronide],–,7.4
C[C@@H]1O[C@@H](OC[C@H]2O[C@@H](OCCc3ccc(O)c(O)c3)[C@H](O)[C@@H](O)[C@@H]2O)[C@H](O)[C@H](O)[C@H]1O [Forsythoside E],–,34.8

# Filtered by structure, the compounds so far with a carbonyl joined to an NH by a bond outside any ring
Compound,"229E Inhibition rate (229E Inhibition rate, 24 h) [%]",229E Inhibition rate [%]
CN(C)[C@@H]1C(O)=C(C(N)=O)C(=O)[C@@]2(O)C(O)=C3C(=O)c4c(O)cccc4[C@@](C)(O)[C@H]3C[C@@H]12 [Tetracycline (hydrochloride)],–,0
C[C@H](N)C(=O)N[C@@H](CCC(N)=O)C(=O)O [L-Alanyl-L-glutamine] (H-Ala-Gln-OH),–,8.7
CCCCCCCCCCCCCCCCCC(=O)NCc1ccccc1 [N-Benzyloctadecanamide],–,46.3
